In paper PMC6937711:
These are yes or no findings as the source states them, for the method shown. For part of these data: A result given as binding can be weak or reduced; the word gives no strength. Blank lines part the entries; values can stand above or below the molecule they belong to.

How the values were obtained:
GmWRKY40 (Glycine max) [1] = molecular target: GmWRKY40 (Glycine max) (UniProt I1KTB9); assay: two-hybrid; pairwise confirmation: BD fusions of GmWRKY40 or its domain mutants (pGBKT7) with AD fusions of JAZ1-JAZ8 (pGADT7); synthetic dropout medium with X-alpha-gal lacking leucine, tryptophan, histidine and adenine; blue colonies positive; dilutions 0.8, 0.08, 0.008
GmWRKY40 (Glycine max) [2] = molecular target: GmWRKY40 (Glycine max) (UniProt I1KTB9); assay: two-hybrid; yeast two-hybrid screening for GmWRKY40-interacting partners, GmWRKY40 as bait; synthetic dropout medium with X-alpha-gal lacking leucine, tryptophan, histidine and adenine
[3] = molecular target: GmWRKY40 zinc-finger domain mutant (Glycine max); assay: two-hybrid; pairwise confirmation: BD fusions of GmWRKY40 or its domain mutants (pGBKT7) with AD fusions of JAZ1-JAZ8 (pGADT7); synthetic dropout medium with X-alpha-gal lacking leucine, tryptophan, histidine and adenine; blue colonies positive; dilutions 0.8, 0.08, 0.008
GmWRKY40 (Glycine max) [4] = molecular target: GmWRKY40 (Glycine max) (UniProt I1KTB9); assay: as above; remark: listed apart in the source
[5] = molecular target: GmWRKY40 WRKY domain mutant (Glycine max); assay: as above

- binding (GmWRKY40 (Glycine max) [2]): binds
B1: JAZ1 (Glyma.07G041400.1), clone found in the yeast two-hybrid screening (protein, UniProt C6TCZ5 1-232)
chain: MSSFPNTVAEGRRSGKAPEKSTFSQTCSLLSQFLKEKRASADSTLGIGGKMEPKANTKALLGSLQNSDGALKLSASAMEFLPQLVENPCIKKSRSPGPESPQLTIFYAGKMLVFDAFPPEKATEVMEMATKLASNNSGTEESPPSLPVTTEKLAVSKMPQTNTSSETPKPGNQGVGSDMRYPRRASLLKFLEKRKERVNARGPYQMNNLKPEGSSSGGEPEDQCSKQFDLNF

- binding [3]: no binding
- binding (GmWRKY40 (Glycine max) [4]): binds
- binding [5]: no binding
B2: JAZ1 (Glyma.07G041400.1) (protein, UniProt C6TCZ5 1-232)
chain: B1 chain

Further lines, the molecule ahead of its results:

Molecule: JAZ5 (Glyma.16G010000.1) (from UniProt C6TNM1)
- binding (GmWRKY40 (Glycine max) [1]): binds

Molecule: JAZ4 (Glyma.13G112000.1) (from UniProt I1LY77)
- binding (GmWRKY40 (Glycine max) [1]): binds
